Measured values taken from patent publication US20250283871A1, “COMPOSITIONS AND METHODS FOR MODULATING THE INTERACTION BETWEEN SS18-SSX FUSION ONCOPROTEIN AND NUCLEOSOMES” (Dana-Farber Cancer Institute, Inc., priority 2020, published 2025).

Test system: BAF complex subunits and histone proteins
Experiment: Mass spectrometry proteomics of purified HA-SS18 WT and HA-SS18-SSX1 complexes (Tables 5A-5E)
Parameters: species or system human
Details: HA-SS18SSX1_CHR_peptides: protein identified in the HA-SS18-SSX1 purification from solubilized chromatin (CHR), HEK-293T

| Substance | Total (total peptides) | Unique (unique peptides) |
| --- | --- | --- |
| AHCTF1 | 45 | 42 |
| ATRX | 23 | 20 |
| AURKB | 5 | 5 |
| BAZ1A | 7 | 7 |
| BAZ2A | 14 | 14 |
| BCL7C: BAF complex subunit quantified in the IP MS | 29 | 11 |
| BCLAF1 | 78 | 34 |
| BICRA | 25 | 23 |
| BMS1 | 20 | 19 |
| BOP1 | 5 | 5 |
| BRD2 | 23 | 17 |
| CBX1 | 5 | 5 |
| CBX3 | 7 | 6 |
| CBX5 | 29 | 9 |
| CDCA8 | 5 | 5 |
| CHD1 | 19 | 18 |
| CHD2 | 7 | 7 |
| CHD3 | 11 | 10 |
| CHD4 | 73 | 57 |
| CHD5 | 7 | 5 |
| CUL4B | 14 | 13 |
| DDX21 | 10 | 9 |
| DDX52 | 10 | 9 |
| DDX54 | 11 | 11 |

Same assay, conditions: HA-SS18SSX1_CHR_peptides: proteins found in HA-SS18-SSX1 BAF complex purification from solubilized chromatin (CHR), HEK-293T

| Substance | Total (peptides) | Unique (peptides) |
| --- | --- | --- |
| BCORL1 | 1 | 1 |
| C11orf98 | 1 | 1 |
| DNAJB6 | 1 | 1 |

Same assay, conditions: HA-SS18SSX1_CHR_peptides; total peptides of the identified protein

| Substance | Total |
| --- | --- |
| AIFM1 | 3 |
| ANXA2 | 1 |
| ARID2 | 2 |
| ATP5B | 2 |
| ATRX | 2 |
| BRD3 | 4 |
| CLK1 | 1 |
| COIL | 3 |
| DDX10 | 3 |
| DDX39A | 2 |
| DDX41 | 2 |
| DES | 3 |
| DHX33 | 2 |
| DIDO1 | 1 |
| EED | 2 |

Same assay, conditions: HA-SS18SSX1_CHR_peptides; unique peptides of the identified protein

| Substance | Unique |
| --- | --- |
| AIFM1 | 3 |
| ANXA2 | 1 |
| ARID2 | 2 |
| ATP5B | 2 |
| ATRX | 2 |
| BRD3 | 4 |
| CLK1 | 1 |
| COIL | 3 |
| DDX10 | 3 |
| DDX39A | 2 |
| DDX41 | 2 |
| DES | 2 |
| DHX33 | 2 |
| DIDO1 | 1 |
| EED | 2 |

Same assay, conditions: HA-SS18SSX1_NE_peptides (Table 5B); HA-SS18-SSX1 BAF complex purification from soluble nuclear extract, HEK-293T

| Substance | Total (peptides) | Unique (peptides) |
| --- | --- | --- |
| AKAP8 | 1 | 1 |
| ATAD1 | 1 | 1 |

Same assay, conditions: HA-SS18SSX1_NE_peptides: protein co-purified with HA-SS18-SSX1 BAF complexes from soluble nuclear extract (NE), HEK-293T cells

| Substance | Total (peptides) | Unique (peptides) |
| --- | --- | --- |
| ABCC1 | 2 | 2 |
| APP | 1 | 1 |
| ARID2 | 2 | 2 |
| ARL13B | 1 | 1 |
| CDKAL1 | 2 | 2 |
| CKAP5 [listing 1 of 2 here] | 1 | 1 |
| CPSF4 | 2 | 2 |
| DDX39A | 1 | 1 |
| DECR1 | 1 | 1 |
| DNAJA1 | 2 | 2 |
| DNAJA2 | 1 | 1 |
| DNAJC19 | 1 | 1 |

Same assay, conditions: HA-SS18SSX1 purification, NE (soluble nuclear extract) fraction, HEK-293T; peptides per identified protein

| Substance | Total (total peptides) | Unique (unique peptides) |
| --- | --- | --- |
| AFG3L2 | 13 | 13 |
| AHCTF1 | 4 | 4 |
| AIFM1 | 23 | 15 |
| ALDH3A2 | 3 | 3 |
| ATP5B | 25 | 22 |
| BCL7C: BAF complex subunit quantified in the IP MS | 14 | 7 |
| BICRA | 89 | 34 |
| CLPX | 4 | 4 |
| COIL | 6 | 6 |
| COQ8A | 3 | 3 |
| DDX21 | 4 | 4 |
| DDX41 | 15 | 13 |
| DDX52 | 6 | 6 |
| DNM2 | 8 | 8 |
| EEF1G | 4 | 4 |

Same assay, conditions: HA-SS18WT_CHR_peptides: HA-SS18 WT purification from nuclease-treated solubilized chromatin (CHR), HEK-293T; label = protein identified

| Substance | Total (peptides) | Unique (peptides) |
| --- | --- | --- |
| AHCTF1 | 25 | 24 |
| ARID2 | 4 | 4 |
| ATP5B | 4 | 4 |
| ATRX | 5 | 5 |
| BAZ2A | 5 | 5 |
| BCL7C: BAF complex subunit quantified in the IP MS | 9 | 5 |
| BCLAF1 | 31 | 21 |
| BICRA | 11 | 10 |
| BMS1 | 6 | 6 |
| BOP1 | 5 | 5 |
| BRD2 | 5 | 5 |
| CBX3 | 3 | 3 |
| CDCA8 | 3 | 3 |
| CHD1 | 9 | 9 |
| CHD3 | 7 | 7 |
| CHD4 | 33 | 31 |
| CHD5 | 3 | 3 |
| COIL | 3 | 3 |
| CUL4B | 5 | 5 |
| DDX21 | 9 | 9 |
| DDX41 | 9 | 9 |
| DDX52 | 10 | 8 |
| DDX54 | 8 | 8 |

Same assay, conditions: HA-SS18WT_CHR_peptides: protein identified in HA-SS18 WT BAF complex purification from nuclease-treated solubilized chromatin (CHR), HEK-293T

| Substance | Total (total peptides) | Unique (unique peptides) |
| --- | --- | --- |
| ANXA2 | 1 | 1 |
| AURKB | 2 | 2 |
| BCORL1 | 1 | 1 |
| BRD3 | 2 | 2 |
| C11orf98 | 1 | 1 |
| CBX1 | 2 | 2 |
| CHD2 | 1 | 1 |
| CKB | 1 | 1 |
| CLK1 | 1 | 1 |
| CUL9 | 1 | 1 |
| DDX10 | 1 | 1 |
| DDX39A | 1 | 1 |
| DES | 2 | 2 |
| DHX33 | 1 | 1 |
| DMBT1 | 1 | 1 |
| EED | 1 | 1 |

Same assay, conditions: HA-SS18WT_NE_peptides: HA-SS18 WT complexes purified from nuclear extract (NE), HEK-293T; label = protein identified (Gene Symbol)

| Substance | Total (peptides) | Unique (peptides) |
| --- | --- | --- |
| ABCC1 | 3 | 3 |
| AFG3L2 | 11 | 11 |
| AIFM1 | 23 | 17 |
| ARID2 | 5 | 5 |
| ATP5B | 33 | 28 |
| BCL7C: BAF complex subunit quantified in the IP MS | 33 | 11 |
| BICRA | 158 | 45 |
| CLPX | 3 | 3 |
| COIL | 3 | 3 |
| COQ8A | 8 | 8 |
| DDX41 | 8 | 8 |
| DDX52 | 7 | 7 |
| DNAJA1 | 3 | 3 |
| DNM2 | 6 | 5 |
| EEF1G | 6 | 6 |

Same assay, conditions: HA-SS18WT_NE_peptides: proteins co-purified with HA-SS18 WT from nuclear extract (NE), HEK-293T

| Substance | Total (peptides) | Unique (peptides) |
| --- | --- | --- |
| ADCY6 | 1 | 1 |
| AHCTF1 | 2 | 2 |
| ALDH3A2 | 2 | 2 |
| BTAF1 | 1 | 1 |
| CCT3 | 1 | 1 |
| CKAP5 [listing 2 of 2 here] | 1 | 1 |
| COPE | 1 | 1 |
| CTPS1 | 1 | 1 |
| DDX21 | 2 | 2 |
| DDX54 | 2 | 2 |
| DEPDC1B | 1 | 1 |
| DNAJA2 | 1 | 1 |
